Source: publication PMC11618363
Read-outs that look alike come from different tables or passages of the source. These are yes or no findings as the source states them, for the method shown. For some of these results: In cells and extracts the contact can be indirect. Some binding calls cover weakened binding; strength is not graded here. For some of these results: Tags and fused reporters may be left off the sequences shown. Each block holds one molecule with its values, some of them ahead of it.

Amino acid sequences for entries named in this document (tags omitted). Residues count along the entry.
UniProt Q8R4B8: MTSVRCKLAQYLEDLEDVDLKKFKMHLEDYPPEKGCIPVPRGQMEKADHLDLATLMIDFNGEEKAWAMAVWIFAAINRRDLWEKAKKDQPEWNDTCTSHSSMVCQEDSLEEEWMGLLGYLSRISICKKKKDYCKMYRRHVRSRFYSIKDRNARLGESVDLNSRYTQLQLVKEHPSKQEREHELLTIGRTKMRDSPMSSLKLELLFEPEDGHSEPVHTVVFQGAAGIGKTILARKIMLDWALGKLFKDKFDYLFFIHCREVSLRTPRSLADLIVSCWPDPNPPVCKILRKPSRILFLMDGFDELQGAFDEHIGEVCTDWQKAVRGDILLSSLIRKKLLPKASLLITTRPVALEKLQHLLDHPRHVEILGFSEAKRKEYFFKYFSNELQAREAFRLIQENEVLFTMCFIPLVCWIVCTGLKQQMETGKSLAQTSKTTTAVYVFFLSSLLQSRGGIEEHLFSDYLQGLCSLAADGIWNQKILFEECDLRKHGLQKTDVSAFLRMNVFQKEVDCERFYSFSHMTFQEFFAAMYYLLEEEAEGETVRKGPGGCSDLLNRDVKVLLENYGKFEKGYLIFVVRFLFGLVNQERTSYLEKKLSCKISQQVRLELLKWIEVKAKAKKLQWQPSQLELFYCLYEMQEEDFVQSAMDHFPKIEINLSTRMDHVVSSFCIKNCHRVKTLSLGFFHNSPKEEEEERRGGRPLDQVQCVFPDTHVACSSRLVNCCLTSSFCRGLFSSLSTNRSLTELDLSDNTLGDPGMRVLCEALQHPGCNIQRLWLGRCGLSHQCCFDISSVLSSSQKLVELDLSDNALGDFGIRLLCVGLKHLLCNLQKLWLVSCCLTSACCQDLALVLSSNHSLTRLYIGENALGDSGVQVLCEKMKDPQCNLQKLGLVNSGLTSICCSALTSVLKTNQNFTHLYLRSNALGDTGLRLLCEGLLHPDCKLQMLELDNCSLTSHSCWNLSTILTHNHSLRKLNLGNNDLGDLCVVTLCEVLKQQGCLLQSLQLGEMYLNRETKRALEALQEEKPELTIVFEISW
UniProt P13020, residues 26-780: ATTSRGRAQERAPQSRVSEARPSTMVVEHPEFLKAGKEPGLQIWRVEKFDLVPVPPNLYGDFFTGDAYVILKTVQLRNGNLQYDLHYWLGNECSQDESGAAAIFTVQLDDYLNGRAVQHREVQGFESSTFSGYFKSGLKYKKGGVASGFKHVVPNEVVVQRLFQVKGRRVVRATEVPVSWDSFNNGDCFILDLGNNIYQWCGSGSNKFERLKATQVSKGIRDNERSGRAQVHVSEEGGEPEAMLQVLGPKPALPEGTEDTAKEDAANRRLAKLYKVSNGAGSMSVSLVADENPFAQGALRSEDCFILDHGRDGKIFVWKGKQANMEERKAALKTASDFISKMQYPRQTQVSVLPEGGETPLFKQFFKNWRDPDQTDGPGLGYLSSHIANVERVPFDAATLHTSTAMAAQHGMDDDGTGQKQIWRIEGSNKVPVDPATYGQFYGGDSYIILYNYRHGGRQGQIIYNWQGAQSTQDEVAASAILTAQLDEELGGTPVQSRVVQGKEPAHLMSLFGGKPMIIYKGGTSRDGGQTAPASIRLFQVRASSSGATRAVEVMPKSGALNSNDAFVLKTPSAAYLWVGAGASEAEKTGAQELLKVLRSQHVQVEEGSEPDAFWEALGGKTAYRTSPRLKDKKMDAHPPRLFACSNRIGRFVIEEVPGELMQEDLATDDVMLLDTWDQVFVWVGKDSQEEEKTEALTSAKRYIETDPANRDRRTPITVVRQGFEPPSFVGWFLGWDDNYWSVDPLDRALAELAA

Columns and labels:
[1] = target: Flag-NLRP3 (UniProt Q8R4B8); assay: co-IP; HEK293T transiently transfected for 48 h; lysate in 50 mM HEPES pH 7.0, 250 mM NaCl, 1 mM EDTA, 0.2% Nonidet P-40; overnight at 4 °C with anti-Flag M2 affinity gel or anti-c-Myc agarose; immunoblot; in some experiments varying amounts of cGSN or MAVS plasmid, or BAPTA-AM (5, 20, 40 μM) during transfection
[2] = target: NLRP3 (mouse (endogenous in BMDMs, J774.1 cells, peritoneal resident macrophages)) (UniProt Q8R4B8); assay: SEC; BMDM lysate (LPS-primed, with or without nigericin 5 μM, 45 min) fractionated on Superdex 200 prep grade in 20 mM sodium phosphate, 150 mM NaCl, pH 7.0; fractions immunoblotted
[3] = target: Flag-NLRP3 (UniProt Q8R4B8); assay: co-IP; HEK293T transiently transfected for 48 h; lysate in 50 mM HEPES pH 7.0, 250 mM NaCl, 1 mM EDTA, 0.2% Nonidet P-40; overnight at 4 °C with anti-Flag M2 affinity gel or anti-c-Myc agarose; immunoblot; in some experiments varying amounts of cGSN or MAVS plasmid, or BAPTA-AM (5, 20, 40 μM) during transfection; remark: listed apart in the source
[4] = target: NLRP3 (mouse (endogenous in BMDMs, J774.1 cells, peritoneal resident macrophages)) (UniProt Q8R4B8); assay: proximity ligation; in situ PLA (Duolink) on fixed, permeabilised cells primed with LPS 100 ng/mL for 3 h; BMDMs, control and Gsn-KO J774.1 cells, Gsn fl/fl and Gsn ΔMye peritoneal resident macrophages

binding [1]: binds
Molecule: Myc-pGSN (from UniProt P13020 26-780)

binding [2]: binds
B1: pro-caspase-1 (protein, UniProt P29452 1-402)
chain: MADKILRAKRKQFINSVSIGTINGLLDELLEKRVLNQEEMDKIKLANITAMDKARDLCDHVSKKGPQASQIFITYICNEDCYLAGILELQSAPSAETFVATEDSKGGHPSSSETKEEQNKEDGTFPGLTGTLKFCPLEKAQKLWKENPSEIYPIMNTTTRTRLALIICNTEFQHLSPRVGAQVDLREMKLLLEDLGYTVKVKENLTALEMVKEVKEFAACPEHKTSDSTFLVFMSHGIQEGICGTTYSNEVSDILKVDTIFQMMNTLKCPSLKDKPKVIIIQACRGEKQGVVLLKDSVRDSEEDFLTDAIFEDDGIKKAHIEKDFIAFCSSTPDNVSWRHPVRGSLFIESLIKHMKEYAWSCDLEDIFRKVRFSFEQPEFRLQMPTADRVTLTKRFYLFPGH

binding [3]: binds
B2: MAVS-His (protein, UniProt Q8VCF0 1-503)
chain: MTFAEDKTYKYIRDNHSKFCCVDVLEILPYLSCLTASDQDRLRASYRQIGNRDTLWGLFNNLQRRPGWVEVFIRALQICELPGLADQVTRVYQSYLPPGTSLRSLEPLQLPDFPAAVSGPSAFAPGHNIPDHGLRETPSCPKPVQDTQPPESPVENSEQLLQTNSGAVARMSGGSLIPSPNQQALSPQPSREHQEQEPELGGAHAANVASVPIATYGPVSPTVSFQPLPRTALRTNLLSGVTVSALSADTSLSSSSTGSAFAKGAGDQAKAATCFSTTLTNSVTTSSVPSPRLVPVKTMSSKLPLSSKSTAAMTSTVLTNTAPSKLPSNSVYAGTVPSRVPASVAKAPANTIPPERNSKQAKETPEGPATKVTTGGNQTGPNSSIRSLHSGPEMSKPGVLVSQLDEPFSACSVDLAISPSSSLVSEPNHGPEENEYSSFRIQVDESPSADLLGSPEPLATQQPQEEEEHCASSMPWAKWLGATSALLAVFLAVMLYRSRRLAQ

binding [4]: binds
B3: MAVS (protein, UniProt Q8VCF0 1-503)
chain: B2 chain
